Assay results taken from PMC7581431.
No constants are given. Whether binding was seen depends on the method and setting. For some assays here: In cells and extracts the contact can be indirect. Some entries that bind do so weakly or less than the wild type.

Amino acid sequences for entries named in this document (tags omitted).
UniProt O15169: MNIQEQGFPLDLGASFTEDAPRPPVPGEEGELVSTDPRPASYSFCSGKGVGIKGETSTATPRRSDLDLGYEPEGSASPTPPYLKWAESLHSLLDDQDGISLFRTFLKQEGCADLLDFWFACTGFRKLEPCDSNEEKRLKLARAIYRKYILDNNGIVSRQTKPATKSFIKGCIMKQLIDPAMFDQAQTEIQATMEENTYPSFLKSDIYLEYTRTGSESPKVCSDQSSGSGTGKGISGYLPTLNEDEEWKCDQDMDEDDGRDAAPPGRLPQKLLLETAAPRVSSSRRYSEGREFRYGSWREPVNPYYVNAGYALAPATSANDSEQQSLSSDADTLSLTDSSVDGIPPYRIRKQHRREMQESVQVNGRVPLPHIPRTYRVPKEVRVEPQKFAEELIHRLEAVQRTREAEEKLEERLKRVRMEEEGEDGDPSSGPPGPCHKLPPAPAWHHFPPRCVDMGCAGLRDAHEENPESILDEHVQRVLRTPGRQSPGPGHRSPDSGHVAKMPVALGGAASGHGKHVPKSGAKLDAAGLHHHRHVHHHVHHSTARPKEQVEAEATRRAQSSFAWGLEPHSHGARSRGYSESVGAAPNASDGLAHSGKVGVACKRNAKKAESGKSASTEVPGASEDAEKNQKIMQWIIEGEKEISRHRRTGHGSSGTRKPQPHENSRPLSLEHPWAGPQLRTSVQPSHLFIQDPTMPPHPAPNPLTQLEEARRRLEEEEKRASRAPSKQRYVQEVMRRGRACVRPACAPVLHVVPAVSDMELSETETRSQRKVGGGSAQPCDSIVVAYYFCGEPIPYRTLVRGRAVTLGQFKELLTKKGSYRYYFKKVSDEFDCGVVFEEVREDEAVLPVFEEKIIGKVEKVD
UniProt Q9Y2T1: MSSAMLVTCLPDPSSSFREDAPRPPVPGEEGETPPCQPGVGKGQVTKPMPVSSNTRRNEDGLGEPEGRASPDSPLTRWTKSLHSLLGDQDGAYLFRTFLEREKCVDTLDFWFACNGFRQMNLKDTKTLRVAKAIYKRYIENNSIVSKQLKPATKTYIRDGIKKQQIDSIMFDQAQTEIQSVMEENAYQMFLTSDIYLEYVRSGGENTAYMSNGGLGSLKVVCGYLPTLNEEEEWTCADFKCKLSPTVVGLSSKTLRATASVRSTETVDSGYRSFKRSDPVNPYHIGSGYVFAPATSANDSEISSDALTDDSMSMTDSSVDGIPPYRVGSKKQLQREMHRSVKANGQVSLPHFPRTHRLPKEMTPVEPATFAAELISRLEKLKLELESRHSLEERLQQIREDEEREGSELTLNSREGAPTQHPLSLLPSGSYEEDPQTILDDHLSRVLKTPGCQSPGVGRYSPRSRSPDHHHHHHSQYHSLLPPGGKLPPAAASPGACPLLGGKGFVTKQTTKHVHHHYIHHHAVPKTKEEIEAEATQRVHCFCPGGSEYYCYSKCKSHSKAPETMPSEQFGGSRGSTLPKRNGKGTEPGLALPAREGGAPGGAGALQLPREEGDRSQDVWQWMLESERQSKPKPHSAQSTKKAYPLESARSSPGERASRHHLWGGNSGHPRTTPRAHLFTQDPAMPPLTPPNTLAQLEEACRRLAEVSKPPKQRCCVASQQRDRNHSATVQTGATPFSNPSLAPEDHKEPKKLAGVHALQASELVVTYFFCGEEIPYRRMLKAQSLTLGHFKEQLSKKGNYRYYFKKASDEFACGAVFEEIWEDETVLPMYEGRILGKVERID
UniProt Q99MH6: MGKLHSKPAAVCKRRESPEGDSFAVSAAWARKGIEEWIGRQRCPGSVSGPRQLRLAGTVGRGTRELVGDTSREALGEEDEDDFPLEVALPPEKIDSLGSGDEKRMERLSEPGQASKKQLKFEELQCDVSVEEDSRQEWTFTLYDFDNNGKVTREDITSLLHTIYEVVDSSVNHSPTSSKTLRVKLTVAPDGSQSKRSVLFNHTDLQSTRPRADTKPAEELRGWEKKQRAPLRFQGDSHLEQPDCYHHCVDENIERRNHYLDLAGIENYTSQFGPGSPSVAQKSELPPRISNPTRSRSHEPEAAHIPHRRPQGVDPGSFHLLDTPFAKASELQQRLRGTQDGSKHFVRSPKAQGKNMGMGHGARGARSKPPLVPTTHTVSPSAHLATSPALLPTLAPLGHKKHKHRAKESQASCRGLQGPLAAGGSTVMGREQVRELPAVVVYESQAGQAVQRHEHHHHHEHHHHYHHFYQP

How the values were obtained:
Axin1-GFP = Axin1-GFP (UniProt O15169); assay: co-IP; co-expressed proteins in transfected HEK293T cells (control or DVL null); lysis 24-36 hr post-transfection in 20 mM Tris-HCl pH 7.4, 200 mM NaCl, 10% glycerol, 0.2% Triton X-100; Flag- or GFP-trap affinity gel, 90 min to overnight at 4°C; eluted by boiling in LDS sample buffer
Flag-p62 = Flag-p62 (UniProt Q13501); assay: as above
Flag-Axin1 = Flag-Axin1 (UniProt O15169); assay: as above
Flag-Axin2 = Flag-Axin2 (UniProt Q9Y2T1); assay: as above
HA-Nkd1 (murine) = HA-Nkd1 (murine) (UniProt Q99MH6); assay: Western blot of SDS-resistant high-molecular weight (HMW) aggregates; overexpressed Nkd1 in transfected HEK293T cells, alone or with Flag-DVL2; HMW aggregates resistant to boiling in SDS

Substance	binding (Axin1-GFP)	binding (Flag-p62)	binding (Flag-Axin1)	binding (Flag-Axin2)	binding (HA-Nkd1 (murine))
Flag-Nkd1 (from UniProt Q99MH6 1-471)	binds	–	–	–	–
HA-Nkd1 (from UniProt Q99MH6 1-471)	–	binds	binds	no binding	binds
